Experimental findings from US9663478B2, “Benzotriazine oxides as drugs targeting Mycobacterium tuberculosis” (priority 2011, dated 2017) are described below.

In brackets after ≈: the same amount, converted by molar mass.

In experiment [1] the test system is Mtb H37Rv. Briefly: TB MIC - SRI, resazurin-based microplate assay. The class given is cell-based. Conditions: Mycobacterium tuberculosis, Tables 1-4 and text.
In experiment [2] the test system is Mtb H37Rv. Briefly: TB MIC - ITR (UIC), Institute for Tuberculosis Research. The class given is cell-based. Conditions: Mycobacterium tuberculosis, Tables 1-4.

The MIC is the lowest concentration that inhibits growth of the organism. Higher therefore signals a need for much substance.

`O=C1OCCN1/N=C/c1ccc([N+](=O)[O-])o1` [Furazolidone, reference compound]: the values for the MIC in the experiment on Mtb H37Rv [1] and against Mtb H37Rv [2] were 31 µg/mL (≈ 138 µM) and 30 µg/mL (≈ 133 µM), respectively.
